Results taken from PubChem BioAssay AID651640 (Broad Institute, 2012).
In all, about 350,000 compounds went through this assay and about 6,000 (1.7%) were called active. The shares of active, inactive and inconclusive entries below differ from those in the screen. Rule as the data show it: active = CPE inhibition above about 20% (passing the limit was not always enough); inconclusive = no clear call, values can overlap the other calls; tested in BHK-21 cells.

Experiment: protection of cells from dengue 2 killing – plate reader, single concentration, primary screen (AID 651640);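 also: 0% = median of neutral control wells and 100% = median of positive control wells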
Details: DENV2-infected cells, cytopathic effect rescue, at 9.99 µM, active compounds read high

| SMILES | CPE inhibition |
| --- | --- |
| C[C@@H]1CN([C@H](C)CO)C(=O)Cc2cc(NC(=O)CCN3CCOCC3)ccc2O[C@@H]1CN(C)S(=O)(=O)c1ccc(Cl)cc1 | inactive: -2.99% |
| C[C@@H]1CN([C@H](C)CO)C(=O)c2cccc(NC(=O)Nc3ccc4c(c3)OCO4)c2O[C@H]1CN(C)Cc1ccc(Oc2ccccc2)cc1 | inactive: -6.53% |
| CC(C)(O)C#Cc1ccc([C@@H]2[C@H](CO)N3CCCCN(S(C)(=O)=O)C[C@@H]23)cc1 | active: 36.5% |
| CO[C@@H](CN(C)C(=O)c1ccc2c(c1)OCO2)[C@H](C)CN([C@H](C)CO)S(=O)(=O)c1ccc(C)cc1 | inactive: 1.97% |
| CCOC(=O)c1c(NC(=O)COC(=O)c2ccc(Cl)nc2)sc(C)c1C | inconclusive: 39.4% |
| CCN(Cc1ccc(OC)c(COC)c1)CC1CCCN(CCc2cccc(OC)c2)C1 (stereo not given) | active: 25.2% |
| O=C(Nc1ccccc1)N1CCC(O)(c2cccc(C(F)(F)F)c2)CC1 | inconclusive: 29.9% |
| C[C@@H]1CN([C@@H](C)CO)S(=O)(=O)c2ccc(C#CCN(C)C)cc2O[C@@H]1CN(C)Cc1ccccc1F | active: 44.7% |
| C[C@@H]1CCCCO[C@H](CN(C)S(=O)(=O)c2cccs2)[C@@H](C)CN([C@H](C)CO)C(=O)c2cc(NC(=O)Nc3ccc4c(c3)OCO4)ccc2O1 | inconclusive: 22% |
| Cc1ccccc1CN1C(=O)CN(S(C)(=O)=O)CC1(C)C(=O)NCc1ccccc1 (stereo not given) | active: 22.3% |
| Cn1cnc(S(=O)(=O)N2CCCCN3[C@H](CO)[C@@H](c4ccc(-c5ccccc5F)cc4)[C@@H]3C2)c1 | inconclusive: 29.1% |
| Cc1noc(C)c1NC(=O)N(C)C[C@H]1Oc2ccc(NS(=O)(=O)c3ccc(Cl)cc3)cc2C(=O)N([C@H](C)CO)C[C@H]1C | inactive: -4.06% |
| COc1ccc(CNc2ncc(-c3ccc(F)cc3)n2C)cc1OC | inconclusive: 27.1% |
| CCCCNc1nc2c(-c3ccccc3)nnn2c2ccccc12 | inactive: -3.07% |
| Cc1nc(Cl)sc1C(=O)Nc1ccc(Cl)cc1 | inconclusive: 89.7% |
| C[C@@H]1CN([C@@H](C)CO)C(=O)c2cc(C#Cc3ccncc3)cnc2O[C@@H]1CN(C)S(=O)(=O)c1ccccc1F | inactive: -1.13% |
| Cc1noc(C)c1NC(=O)Nc1ccc2c(c1)C(=O)N([C@H](C)CO)C[C@H](C)[C@H](CN(C)C(=O)NC(C)C)OCCCC[C@H](C)O2 | inconclusive: 27% |
| C[C@@H]1CCCCO[C@@H](CN(C)Cc2ccccc2)[C@H](C)CN([C@H](C)CO)C(=O)c2cc(NC(=O)Nc3ccccc3)ccc2O1 | inactive: -10.9% |
| O=S(=O)(c1cccc(F)c1)N1CC[C@@H]2[C@H](CO)Nc3ccc(C#Cc4ccccc4F)cc3[C@@H]21 | active: 23.7% |
| C[C@H](CO)N1C[C@H](C)[C@@H](CN(C)Cc2ccccc2)Oc2ccc(NC(=O)Nc3ccc(F)cc3)cc2CC1=O | inactive: 1.45% |
| O=S1(=O)N[C@@H](CC2CCCCC2)COc2cc(Br)ccc21 | inconclusive: 43.5% |
| C=CCNC(=O)[C@H]1[C@@H]2C(=O)O[C@@H](c3ccccc3)[C@@H](c3ccccc3)N2[C@@H](c2ccc(O)cc2)[C@]12C(=O)N(C(=O)OCCOC)c1ccc(C#CCC(C(=O)OC)C(=O)OC)cc12 | inactive: 0.79% |
| C/C=C/c1ccc([C@@H]2[C@@H](C#N)N(c3nc(CC)cs3)[C@@H]2CO)cc1 | inconclusive: 43% |
| O=C(O)C[C@@H]1C[C@@H]2c3cc(NC(=O)CC4CC4)ccc3O[C@@H]2[C@H](CO)O1 | active: 30% |

| SMILES | CPE inhibition |
| --- | --- |
| CCCNC(=O)N1CCC2(CC1)CN(C(=O)NC1CCCC1)[C@H](CO)c1[nH]c3cc(OC)ccc3c12 | inconclusive: 32.3% |
| C[C@H](CO)N1C[C@H](C)[C@H](CN(C)S(=O)(=O)c2cn(C)cn2)Oc2ccc(NC(=O)CCCN(C)C)cc2C1=O | inconclusive: 42% |
| C/C(=N\Nc1nc2ccccc2[nH]1)c1ccc2c(c1)OCO2 | inactive: -11.1% |
| C[C@H](NC(=O)c1nc[nH]c1C(=O)N1CCN(C(=O)OC(C)(C)C)CC1)c1ccccc1 | inconclusive: 39.5% |
| C[C@H]1CN([C@@H](C)CO)C(=O)CCCn2cc(nn2)CO[C@@H]1CN(C)S(=O)(=O)c1ccc(-c2ccccc2)cc1 | inconclusive: 50.8% |
| C[C@@H]1CN([C@H](C)CO)C(=O)c2cc(NC(=O)CCC(F)(F)F)ccc2O[C@H]1CN(C)Cc1ccc(C(F)(F)F)cc1 | inconclusive: 32.4% |
| O=C(COc1ccccc1)Nc1ccc2oc(=O)ccc2c1 | inconclusive: 24% |
| CCOC(=O)C1CCN(C(=O)c2cc3c(=O)n4cccc(C)c4nc3s2)CC1 | inconclusive: 29.8% |
| CC1=CC(=O)C(Sc2ccc(C)cc2)=CC1=O | active: 94.8% |
| COc1ccc(C(=O)NCCNc2nc3c(C)cccc3cc2C#N)cc1OC | active: 28.8% |
| Cn1c(=O)c(C(=O)NNC(=O)c2cccc(Cl)c2)c(O)c2ccccc21 | inactive: 19.2% |
| Cc1cccc(-c2nn(-c3ccccc3)cc2C(=O)NCC(c2cccs2)N2CCOCC2)c1 (stereo not given) | inconclusive: 37.5% |
| O=C(NCCCn1ccnc1)c1c(F)cccc1F | inconclusive: 28.3% |
| C[C@]12CC[C@@H]3c4ccc(O)cc4CC[C@H]3[C@@H]1CC[C@@H]2OC(=O)CCC(=O)O | inconclusive: 21.1% |
| C[C@@H]1CN([C@H](C)CO)C(=O)Cc2cc(NC(=O)NC3CCCCC3)ccc2O[C@@H]1CN(C)Cc1ccc(C(=O)Nc2ccccc2N)cc1 | active: 28.3% |
| O=C(C[C@@H]1CC[C@H]2[C@@H](COC[C@@H](O)CN2C(=O)Nc2ccc(Cl)cc2)O1)NC1Cc2ccccc2C1 | inconclusive: 66.4% |
| CCCN(C)C[C@H]1Oc2cc(C#Cc3ccccc3F)ccc2S(=O)(=O)N([C@H](C)CO)C[C@H]1C | inconclusive: 34.7% |
| CC(Sc1nnc2c(n1)[nH]c1ccccc12)C(=O)NC1CCCCC1 (stereo not given) | inactive: 3.04% |
| Cc1c(NC(=O)C(C)OC(=O)c2cc(Cl)ccc2O)c(=O)n(-c2ccccc2)n1C (stereo not given) | active: 30.7% |
| C[C@@H]1CN([C@H](C)CO)C(=O)Cc2cc(NC(=O)CCCCCC(=O)Nc3ccccc3N)ccc2O[C@H]1CN(C)Cc1ccccc1 | inconclusive: 28.1% |
| Cn1c(=O)n(CCc2ccccc2)c2ccccc21 | inactive: -0.84% |
| CN(C)C(=O)COC(=O)c1cccc(S(=O)(=O)Nc2ccc(OCc3ccccc3)cc2)c1 | inconclusive: 25.4% |
| Cc1ccc(OCC(=O)NC2CCSc3ccccc32)cc1 (stereo not given) | active: 25.8% |
| COc1cc(CN2CC3(CN(C(=O)NC(C)C)C3)c3c(n(C)c4cc(OC)ccc34)[C@@H]2CO)cc(OC)c1 | inactive: 2.75% |

Compounds above with an NH in an aromatic ring (4):

| SMILES | CPE inhibition |
| --- | --- |
| CCCNC(=O)N1CCC2(CC1)CN(C(=O)NC1CCCC1)[C@H](CO)c1[nH]c3cc(OC)ccc3c12 | inconclusive: 32.3% |
| C/C(=N\Nc1nc2ccccc2[nH]1)c1ccc2c(c1)OCO2 | inactive: -11.1% |
| C[C@H](NC(=O)c1nc[nH]c1C(=O)N1CCN(C(=O)OC(C)(C)C)CC1)c1ccccc1 | inconclusive: 39.5% |
| CC(Sc1nnc2c(n1)[nH]c1ccccc12)C(=O)NC1CCCCC1 (stereo not given) | inactive: 3.04% |

The list continues.

| SMILES | CPE inhibition |
| --- | --- |
| C[C@@H]1CN([C@@H](C)CO)S(=O)(=O)c2ccc(-c3cccc(F)c3)cc2O[C@H]1CN(C)C(=O)c1cccc(F)c1 | inconclusive: 27.6% |
| CCOC(=O)c1nc(-c2ccc3c(c2)OCO3)[nH]c1C | inconclusive: 45.8% |
| CCCNC(=O)N1CC2(CN(C(=O)c3ccncc3)C2)c2c([nH]c3cc(OC)ccc23)[C@@H]1CO | inconclusive: 52.8% |
| Cc1ccc(S(=O)(=O)Nc2ccc3c(c2)C(=O)N([C@@H](C)CO)C[C@@H](C)[C@@H](CN(C)Cc2ccncc2)OCCCC[C@@H](C)O3)cc1 | inconclusive: 30.8% |
| CNc1ccccc1C(=O)OC(C)C(=O)Nc1ccc(Cl)cn1 (stereo not given) | inconclusive: 47.1% |
| Cc1ccc(CNC(=O)COC(=O)c2ccc(S(=O)(=O)NCc3ccco3)cc2)cc1 | inconclusive: 20.2% |
| C[C@H](CO)N1C[C@H](C)[C@@H](CN(C)S(=O)(=O)c2cccs2)Oc2ccc(NC(=O)CCCCCC(=O)Nc3ccccc3N)cc2C1=O | active: 25% |
| CC1Cc2cc(S(=O)(=O)NCCC(=O)NCc3ccc(F)cc3)ccc2N1C(=O)C1CC1 (stereo not given) | inactive: 2.31% |
| CCCC(=O)Nc1ccc2c(c1)nc(CN1CCN(C(=O)OCC)CC1)n2CC | inactive: 3.3% |
| C[C@@H]1CN([C@@H](C)CO)C(=O)c2cc(NC(=O)CCC(F)(F)F)ccc2O[C@@H](C)CCCCO[C@@H]1CN(C)C(=O)Nc1ccc2c(c1)OCO2 | inactive: 2.13% |
| CN(Cc1ccccc1)S(=O)(=O)c1ccc(Cl)c(C(=O)OCC(=O)NC2CCS(=O)(=O)C2)c1 (stereo not given) | active: 32.3% |
| CCCCC(=O)Nc1cc([N+](=O)[O-])ccc1Cl | active: 22.6% |
| COc1ccc(S(N)(=O)=O)cc1C(=O)N(C)CC(=O)Nc1ccc(N2CCOCC2)cc1 | inconclusive: 59.6% |
| CC(C)N1CCN(Cc2nc3ccccc3s2)CC1CCO (stereo not given) | inconclusive: 38.7% |
| OC(COc1ccccc1)CN1CCC(Cc2ccccc2)CC1 (stereo not given) | inconclusive: 34.7% |
| C/C(CC(=O)Nc1ccc(N(C)C)cc1)=N\NC(=O)c1ccc(C(C)(C)C)cc1 | inconclusive: 64.5% |
| CNC[C@H]1Oc2cc(-c3ccccc3F)ccc2S(=O)(=O)N([C@@H](C)CO)C[C@@H]1C | inconclusive: 25.8% |
| CCCOc1ccc(N2C(=O)CC(N(Cc3ccco3)C(C)=O)C2=O)cc1 (stereo not given) | inconclusive: 20.2% |
| O=C(c1cccnc1)N1C[C@@H]2[C@H](c3ccccc31)[C@H](CO)N2C(=O)Nc1cccc(F)c1 | inactive: -0.724% |
| COc1ccc(S(=O)(=O)N[C@H]2CC[C@H](CCn3cc(C(C)C)nn3)O[C@@H]2CO)cc1 | inconclusive: 22.1% |
| N#Cc1ccc(Nc2nc(-c3ccccc3)cs2)cc1 | inconclusive: 30.8% |
| CO[C@@H]1CN(C)C(=O)c2ccc(NC(=O)C3CC3)cc2OC[C@H](C)N(C(=O)c2ccccn2)C[C@H]1C | inactive: -3.65% |

Reprinted at random: two entries already listed.

| SMILES | CPE inhibition |
| --- | --- |
| CO[C@@H]1CN(C)C(=O)c2ccc(NC(=O)C3CC3)cc2OC[C@H](C)N(C(=O)c2ccccn2)C[C@H]1C | inactive: -3.65% |
| CNC[C@H]1Oc2cc(-c3ccccc3F)ccc2S(=O)(=O)N([C@@H](C)CO)C[C@@H]1C | inconclusive: 25.8% |
